Assay results reported in patent publication US10266552B2, “Condensed heterocyclic compound having cycloalkylpyridyl group or salt thereof, agricultural and horticultural insecticide comprising the compound, and method for using the insecticide” (Nihon Nohyaku Co., Ltd., priority 2015, dated 2019).
Some results were stated once for a whole list of compounds, not compound by compound. For at least one compound, name, drawing or mass did not settle the structure.

Columns and labels:
Type in all cases: in vivo
Myzus persicae = experiment: Test of control effect on Myzus persicae (foliar application, potted Chinese cabbage); conditions: 500 ppm, foliar application to potted Chinese cabbage plants, 6 days after the foliar application
Excerpt: Test of Control Effect on Myzus persicae Chinese cabbage plants were planted in plastic pots (diameter: 8 cm, height: 8 cm), green peach aphids (Myzus persicae) were propagated on the plants, and the number of surviving green peach aphids in each pot was counted. The condensed heterocyclic compounds represented by the general formula (1) of the present invention or salts thereof were separately dispersed in water and diluted to 500 ppm, and the agrochemical dispersions were applied to the foliage of the potted Chinese cabbage plants. After the plants were air-dried, the pots were kept in a greenhouse. At 6 days after the foliar application, the number of surviving green peach aphids on the Chinese cabbage plant in each pot was counted, the control rate was calculated according to the formula shown below, and the control effect was evaluated according to the criterion shown below. Control rate=100−{(T×Ca)/(Ta×C)}×100 Ta: the number of survivors before the foliar application in a treatment plot T: the number of survivors after the foliar application in a treatment plot Ca: the number of survivors before the foliar application in a non-treatment plot C: the number of survivors after the foliar application in a non-treatment plot Criterion A: the control rate is 100%. B: the control rate is 90 to 99%. C: the control rate is 80 to 89%. D: the control rate is 50 to 79%.

Laodelphax striatella = experiment: Test of insecticidal effect on Laodelphax striatella (rice seedling dip); conditions: 500 ppm, rice seedlings dipped for 30 seconds, 3rd-instar larvae, 8 days after the inoculation
Excerpt: Test of Insecticidal Effect on Laodelphax striatella
The condensed heterocyclic compounds represented by the general formula (1) of the present invention or salts thereof were separately dispersed in water and diluted to 500 ppm, and rice plant seedlings (variety: Nihonbare) were dipped in the agrochemical dispersions for 30 seconds. After air-dried, each seedling was put into a separate glass test tube and inoculated with ten 3rd-instar larvae of Laodelphax striatella, and then the glass test tubes were capped with cotton plugs. At 8 days after the inoculation, the numbers of surviving larvae and dead larvae were counted, the corrected mortality rate was calculated according to the formula shown below, and the insecticidal effect was evaluated according to the criterion of Test Example 1. Corrected mortality rate (%)=100×(Survival rate in a non-treatment plot−Survival rate in a treatment plot)/Survival rate in a non-treatment plot

Plutella xylostella = experiment: Test of insecticidal effect on Plutella xylostella (dip of Chinese cabbage seedlings with laid eggs); conditions: 500 ppm, seedlings with laid eggs dipped for about 30 seconds, 25° C., 6 days after the dip treatment
Excerpt: Test of Insecticidal Effect on Plutella xylostella
Adults of Plutella xylostella were released onto Chinese cabbage seedlings and allowed to lay eggs thereon. At 2 days after the release of the adults, the Chinese cabbage seedlings with laid eggs were dipped for about 30 seconds in agrochemical dispersions diluted to 500 ppm, each of which contained a different condensed heterocyclic compound represented by the general formula (1) of the present invention as an active ingredient. The seedlings were air-dried and then kept in a thermostatic chamber at 25° C. At 6 days after the dip treatment, the number of hatched larvae per plot was counted, the mortality rate was calculated according to the formula shown below, and the insecticidal effect was evaluated according to the criterion of Test Example 1. This test was conducted in triplicate using 10 adults of Plutella xylostella per plot. Corrected mortality rate (%)=100×(Number of hatched larvae in a non-treatment plot−Number of hatched larvae in a treatment plot)/Number of hatched larvae in a non-treatment plot

CCS(=O)(=O)c1cc(C2(C(=O)OC)CC2)cnc1-c1nc2cc(SC(F)(F)F)ccc2o1 [Compound 18-162]
A (the control rate is 100%): control effect (control rate), activity level (Myzus persicae) | insecticidal effect (corrected mortality rate), activity level (Laodelphax striatella) | insecticidal effect (corrected mortality rate), activity level (Plutella xylostella)

CCSc1cc(C2(C(=O)O)CC2)cnc1-c1nc2cc(SC(F)(F)F)ccc2o1 [Compound 20-41]
A (the control rate is 100%): control effect (control rate), activity level (Myzus persicae) | insecticidal effect (corrected mortality rate), activity level (Laodelphax striatella) | insecticidal effect (corrected mortality rate), activity level (Plutella xylostella)

CCS(=O)(=O)c1cc(C2(C(N)=O)CC2)cnc1-c1nc2cc(SC(F)(F)F)ccc2o1 [Compound 18-166]
A (the control rate is 100%): control effect (control rate), activity level (Myzus persicae) | insecticidal effect (corrected mortality rate), activity level (Laodelphax striatella) | insecticidal effect (corrected mortality rate), activity level (Plutella xylostella)

CCSc1cc(C2(C#N)CC2)cnc1-c1nc2cc(SC(F)(F)F)ccc2o1 [Compound 20-44]
A (the control rate is 100%): control effect (control rate), activity level (Myzus persicae) | insecticidal effect (corrected mortality rate), activity level (Laodelphax striatella) | insecticidal effect (corrected mortality rate), activity level (Plutella xylostella)

CCS(=O)(=O)c1cc(C2CC2)cnc1-c1nc2cc(C(F)(F)C(F)(F)F)ccc2o1 [Compound 8-18]
A (the control rate is 100%): control effect (control rate), activity level (Myzus persicae) | insecticidal effect (corrected mortality rate), activity level (Laodelphax striatella) | insecticidal effect (corrected mortality rate), activity level (Plutella xylostella)

CCS(=O)(=O)c1cc(C2CC2C#N)cnc1-c1nc2cc(C(F)(F)F)cnc2n1C (stereo not drawn) [Compound 11-93]
A (the control rate is 100%): control effect (control rate), activity level (Myzus persicae) | insecticidal effect (corrected mortality rate), activity level (Laodelphax striatella) | insecticidal effect (corrected mortality rate), activity level (Plutella xylostella)

CCS(=O)(=O)c1cc(C2(C(=O)NCC(F)(F)F)CC2)cnc1-c1nc2cc(C(F)(F)F)cnc2n1C [Compound 11-10]
A (the control rate is 100%): control effect (control rate), activity level (Myzus persicae) | insecticidal effect (corrected mortality rate), activity level (Laodelphax striatella) | insecticidal effect (corrected mortality rate), activity level (Plutella xylostella)

CCS(=O)(=O)c1cc(C2(C=NOCC(F)(F)F)CC2)cnc1-c1nc2cc(SC(F)(F)F)ccc2o1 [Compound 18-213]
A (the control rate is 100%): control effect (control rate), activity level (Myzus persicae) | insecticidal effect (corrected mortality rate), activity level (Laodelphax striatella) | insecticidal effect (corrected mortality rate), activity level (Plutella xylostella)

CCS(=O)(=O)c1cc(C2(C(N)=O)CC2)cnc1-c1nc2cc(C(F)(F)F)ncc2n1C [Compound 12-6]
A (the control rate is 100%): control effect (control rate), activity level (Myzus persicae) | insecticidal effect (corrected mortality rate), activity level (Laodelphax striatella) | insecticidal effect (corrected mortality rate), activity level (Plutella xylostella)

CCS(=O)(=O)c1cc(C2CC2)cnc1-c1nc2cc(C(F)(F)C(F)(F)F)cnc2n1C [Compound 1-18]
A (the control rate is 100%): control effect (control rate), activity level (Myzus persicae) | insecticidal effect (corrected mortality rate), activity level (Laodelphax striatella) | insecticidal effect (corrected mortality rate), activity level (Plutella xylostella)

CCS(=O)(=O)c1cc(C2(C=NO)CC2)cnc1-c1nc2cc(C(F)(F)F)cnc2n1C [Compound 11-50]
A (the control rate is 100%): control effect (control rate), activity level (Myzus persicae) | insecticidal effect (corrected mortality rate), activity level (Laodelphax striatella) | insecticidal effect (corrected mortality rate), activity level (Plutella xylostella)

CCS(=O)(=O)c1cc(C2(C(=O)O)CC2)cnc1-c1nc2cc(SC(F)(F)F)ccc2o1 [Compound 18-161]
A (the control rate is 100%): control effect (control rate), activity level (Myzus persicae) | insecticidal effect (corrected mortality rate), activity level (Laodelphax striatella) | insecticidal effect (corrected mortality rate), activity level (Plutella xylostella)
